In PMC2048962:
These are yes or no findings as the source states them, for the method shown. In cells and extracts the contact can be indirect. Some entries that bind do so weakly or less than the wild type. Sequences can lack the tags named with a protein.

Experiments:
[1] = biological target: T1, HA-tagged palmitoylation-deficient R7BP C252S/C253S double mutant (human) (UniProt Q6MZT1); test: co-IP; anti-HA immunoprecipitation from detergent lysate of transfected PC12 cells; buffer A (250 mM NaCl, 50 mM Tris pH 8.0, 5 mM EDTA, 0.5 % NP-40), overnight at 4°C, protein G-Sepharose; immunoblot with anti-HA, anti-RGS7 and anti-Gβ5 (ATDG)
T1 sequence: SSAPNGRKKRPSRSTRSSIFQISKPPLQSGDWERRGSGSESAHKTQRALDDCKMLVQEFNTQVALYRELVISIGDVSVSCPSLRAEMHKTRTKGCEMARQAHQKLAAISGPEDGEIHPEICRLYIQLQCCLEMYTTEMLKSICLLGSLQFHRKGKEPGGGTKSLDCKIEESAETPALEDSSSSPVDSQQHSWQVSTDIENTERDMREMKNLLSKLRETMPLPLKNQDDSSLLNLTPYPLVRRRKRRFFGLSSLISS

[2] = biological target: T2, HA-tagged wild-type human R7-binding protein (R7BP) (human) (UniProt Q6MZT1); test: as above
T2 sequence: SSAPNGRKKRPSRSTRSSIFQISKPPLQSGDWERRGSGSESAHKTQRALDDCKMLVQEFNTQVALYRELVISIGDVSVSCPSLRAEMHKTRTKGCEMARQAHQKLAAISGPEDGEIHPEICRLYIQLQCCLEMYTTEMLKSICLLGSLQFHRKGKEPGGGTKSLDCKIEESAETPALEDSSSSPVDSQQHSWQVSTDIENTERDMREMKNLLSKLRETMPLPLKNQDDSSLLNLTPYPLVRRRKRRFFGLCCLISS

binding [1]: binds | binding [2]: binds
B1: endogenous Gβ5/RGS7 protein complex of PC12 cells (complex, UniProt P62882 1-353; P49803 1-477)
chain 1: MATDGLHENETLASLKSEAESLKGKLEEERAKLHDVELHQVAERVEALGQFVMKTRRTLKGHGNKVLCMDWCKDKRRIVSSSQDGKVIVWDSFTTNKEHAVTMPCTWVMACAYAPSGCAIACGGLDNKCSVYPLTFDKNENMAAKKKSVAMHTNYLSACSFTNSDMQILTASGDGTCALWDVESGQLLQSFHGHGADVLCLDLAPSETGNTFVSGGCDKKAMVWDMRSGQCVQAFETHESDVNSVRYYPSGDAFASGSDDATCRLYDLRADREVAIYSKESIIFGASSVDFSLSGRLLFAGYNDYTINVWDVLKGSRVSILFGHENRVSTLRVSPDGTAFCSGSWDHTLRVWA
chain 2: MAQGNNYGQTSNGVAEESPNMLVYRKMEDVIARMQDEKNGIPIRTVKSFLSKIPSVFSGSDIVQWLIKNLTIEDPVEALHLGTLMAAHGYFFPISDHVLTLKDDGTFYRFQTPYFWPSNCWEPENTDYAVYLCKRTMQNKARLELADYEAESLARLQRAFARKWEFIFMQAEAQAKVDKKRDKIERKILDSQERAFWDVHRPVPGCVNTTEVDIKKSSRMRNPHKTRKSVYGLQNDIRSHSPTHTPTPETKPPTEDELHRQIKYWQIQLDRHRLKMSKVADSLLSYTEQYVEYDPFLVPPDPSNPWLSDDTTFWELEASKEPSQQRVKRWGFGMDEALKDPVGREQFLKFLESEFSSENLRFWLAVEDLKKRPIREVPSRVQEIWQEFLAPGAPSAINLDSKSYDKTTQNVKEPGRYTFEDAQEHIYKLMKSDSYPRFIRSSAYQELLQAKRKGRNIPIFPCHKNCTPTLRASTNLL
